Reference: the pKa sets of Baltruschat and Czodrowski (2020)

Details: basic group

**Q.** Which pKa does the source give for `CN1CC[C@]23c4c5ccc(O)c4O[C@H]2C(=O)CC[C@H]3[C@H]1C5` here?
**A.** 7.97
